Measured values taken from patent US20240110202A1, “Advanced Cell-Permeable Peptide Carriers” (MUSC FOUNDATION FOR RESEARCH DEVELOPMENT, priority 2020, published 2024).

Legend:
[1] = Physicochemical measurements (Zetasizer) of peptide-siCIP2A complexes; conditions: complex with siCIP2A at 50:1 Peptide:siRNA molar (12.5 N/P) ratio in water
Serum protection assay = type: in vitro ADME; conditions: siCIP2A, 50:1, 50% human serum, 1 hour at 37° C.
Procedure: Afterwards, complexes were either treated or untreated with 50% human serum (final concentration; VWR, Radnor, PA) for 1 hour at 37° C., followed by denaturation with 4% SDS. Next, the samples were electrophoresed on a 4% agarose gel and resulting siCIP2A bands were imaged and quantified, as described above.

siCIP2A [2] = assay: siRNA release assay (heparin competition); conditions: 50:1 complexes
Procedure: Afterwards complexes were incubated with either 0, 0.1, 0.5, 1.0, 2.0, 5.0 or 10 μg heparin (Millipore Sigma, St. Louis, MO) for 30 minutes at RT. The samples were then electrophoresed on a 4% agarose gel and resulting siCIP2A bands were imaged and quantified, as described above.

siCIP2A [3] = assay: siRNA binding assay (gel-shift); conditions: Peptide:siRNA molar ratios of 1:1 through 20:1
Description: Afterwards, the samples were electrophoresed on a 4% agarose gel and stained with ethidium bromide. Free siCIP2A was used as a normalizing control. An Ultra-Low Range DNA Ladder (Thermo Fisher Scientific, Waltham, MA) was used as a MW marker. Resulting siCIP2A bands were imaged and quantified using a G:Box Chemi XX6 and GeneSys image capture software (Syngene, Frederick, MD), respectively.

CIP2A mRNA = assay: CIP2A silencing in cells, real-time PCR; type: cell-based, human; conditions: CAL 27 cells, 50:1, 48 hours
Procedure: CAL 27 cells, grown to a confluency of 60% on 24-well plates, were rinsed three times with Opti-MEM. […] Afterwards, the complexes were added to the cells at a siRNA concentration of 125 nM and incubated for 4 hours at 37° C. with 5% CO2, prior to adjusting the siRNA and FBS concentrations to 100 nM and 10%, respectively, with the addition of 50% FBS/Opti-MEM media. 48 hours post-treatment, the total RNA or protein was harvested for subsequent real-time PCR and Western blot analyses.
Total RNA was harvested using the RNeasy Mini Kit (Qiagen, Germantown, MD). RNA was then reverse transcribed using the High-Capacity cDNA Reverse Transcription Kit (Thermo Fisher Scientific) in a Bio-Rad (Hercules, CA) T100 Thermal Cycler. Next, quantitative real-time PCR was performed in an Applied Biosystems™ StepOnePlus™ Real-Time PCR machine (Thermo Fisher Scientific) using the TaqMan™ Fast Advanced Master Mix (Thermo Fisher Scientific) and predesigned TaqMan™ Gene Expression Assays (Thermo Fisher Scientific) for CIP2A (Hs00405413_m1) and 18S (4319413E), according to the manufacturer's instructions.

## GLFEAIEGFIENGWEGMIDGWYGGGGRRRRRRRRRK [All-L]
[1]
  PDI (Polydispersity index): 0.327
[1]; mean hydrodynamic size, dynamic light scattering, ± SD, three experiments
  Particle Size: 190.2 ± 82.4 nm
[1]; mean ± SD, three experiments
  Zeta Potential: 39.4 ± 7.3 mV
Serum protection assay
  ability to protect siRNAs in the presence of serum, compared to 599: unstable in serum compared to 599-siRNA complexes
siCIP2A [2]; 0-10 μg heparin, 30 minutes at RT
  siRNA release compared to 599: poor siRNA release
siCIP2A [2]; increasing heparin, maximal at 4-fold excess and higher (≥2 μg; ≥120 pmol) of heparin
  complexed siRNAs (maximally) released: ~70%
siCIP2A [3]
  siRNA binding compared to 599: largely no significant changes in siRNA binding relative to 599
CIP2A mRNA
  gene silencing in comparison to 599 / among the peptide variants: significant enhancements in gene silencing
CIP2A mRNA; fold change normalized to 599
  enhancement (improvement) in gene silencing in comparison to 599: ~20%
